The full ranking holds about 33,000 sequences; the median of “E-score (-0.5 to 0.5)” is about -0.0034, and the highest 2% start at about 0.25. The list shows a part of the results.
Each sequence was assayed against T1, Yap3 (UniProt P38749) (assay: PBM E-score (8-mer binding enrichment) (E-score (-0.5 to 0.5)); higher = stronger / more preferred TF binding). Conditions: protein concentration: 100 nM; construct: GST-full length.
T1 sequence: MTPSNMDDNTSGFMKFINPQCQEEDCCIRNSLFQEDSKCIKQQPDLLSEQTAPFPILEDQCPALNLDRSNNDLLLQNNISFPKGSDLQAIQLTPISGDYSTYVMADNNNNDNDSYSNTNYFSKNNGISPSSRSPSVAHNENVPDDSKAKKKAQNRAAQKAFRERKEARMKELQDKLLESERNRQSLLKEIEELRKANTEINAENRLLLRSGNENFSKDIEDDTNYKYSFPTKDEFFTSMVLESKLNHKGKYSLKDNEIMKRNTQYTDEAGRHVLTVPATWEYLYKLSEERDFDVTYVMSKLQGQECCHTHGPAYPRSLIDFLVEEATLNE
Experimental: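 Universal 'all 10-mer' protein binding microarrays (Agilent AMADID 015681) probed with GST-tagged S. cerevisiae TFs (full-length or DBD) made by in vitro transcription/translation (PURExpress), about 100-200 nM. Bound TF was detected with fluorescent anti-GST. Each ungapped 8-mer (which stands for itself and its reverse complement) is scored by the PBM enrichment score (E-score), a modified Wilcoxon-Mann-Whitney statistic from -0.5 to +0.5, computed with the Universal PBM Analysis Suite. Scale: above 0.35 generally sequence-specific binding.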

Sequence | PBM E-score
CCCGCCCG | -0.0448
ACCTCCCC | -0.169
ACGCTCCA | -0.0882
ATACCTCC | -0.0495
GCGGTAAA | 0.0997
TGTGGCAA | -0.00899
GACTCCAA | -0.25
CAAGACTA | -0.116
CATGGGAG | -0.0128
GATATCAA | 0.174
GAACTGCA | 0.0204
ATCTCAAA | 0.183
GCGACAAA | 0.0655
ACACTGAA | 0.177
CAGACTTA | -0.0989
CGCGGTAG | 0.0793
GCTACAGA | -0.0956
CCTGACCA | 0.133
GCTCGTTA | 0.0115
ATAACAAC | 0.161
ATATTAAC | 0.274
CTCGGACA | 0.051

Sequence | PBM E-score
GCATACCC | 0.073
CTCTGCCA | -0.222
CAAACGTC | -0.127
CCTAACTC | -0.142
GCAATCGC | -0.0868
ATCTGATA | -0.114
ATTGTCTA | 0.225
CCACAATA | -0.0221
CTAATTGA | 0.0727
CGTAGGCA | -0.177
AATGGCTC | 0.0559
CCAACATC | -0.011
CTTGTACA | 0.0197
ATTCACCA | 0.0582
CTACACCA | -0.0324
AAACGAGC | 0.047
ACACGTCT | -0.05
TCTTGGCA | 0.13
AATCTAAG | 0.0332
AGTTTAAT | 0.153
ACATGGTC | 0.0283
CCTGAGCC | -0.211

Sequence | PBM E-score
AAACCGCT | -0.164
GAAGAGTA | 0.0512
GACGCCAA | -0.0394
AACGACAG | -0.0462
CGGGAACA | 0.165
CCAAGCTA | -0.0922
AAATAGAG | 0.0258
AAGGCTAC | -0.101
ACCAAGCC | -0.0646
AGTTGTGG | 0.271
CTCGGCAC | -0.0386
ACGTGTGG | -0.0402
CGTTCTGC | 0.0693
GGGCAAAC | 0.0517
TAGCCGGA | 0.0491
CCCAGAAA | 0.0289
GGCTCGCA | -0.127
ACCCTGCC | -0.225
ATGTATCC | 0.102
GATGCGAA | 0.057
ATTGGAAG | 0.0305
GCACAATA | 0.102

Sequence | PBM E-score
ACCTAAGA | -0.059
CCGATTTA | 0.107
ATACCATG | 0.0804
ACAAATCT | 0.107
AGGAATAA | 0.156
CAAGACTG | -0.0723
AGGGGTGG | -0.117
GATCAAGC | 0.0653
ACAAGACG | -0.114
CGCCTGGC | -0.253
CATCCGTA | 0.186
CCGCCAAG | -0.273
GAGCACCA | -0.112
CACACGTG | 0.0982
AGTAAGGG | 0.0553
ATCTAGTG | -0.0728
GGCAATAA | 0.114
CTCCTGCC | -0.159
AGAAACTG | 0.00674
CGACTTAA | -0.0743

Reference: the supplement of paper PMC3334620
